Assay results published in the supplement of paper PMC10849652.
The other results are listed elsewhere or left out.

Chains of the proteins cited; added tags and fusions are not shown. Lines headed by an entry give the natural chain unless they say otherwise; changes in a name come on top.
UniProt Q96FZ7: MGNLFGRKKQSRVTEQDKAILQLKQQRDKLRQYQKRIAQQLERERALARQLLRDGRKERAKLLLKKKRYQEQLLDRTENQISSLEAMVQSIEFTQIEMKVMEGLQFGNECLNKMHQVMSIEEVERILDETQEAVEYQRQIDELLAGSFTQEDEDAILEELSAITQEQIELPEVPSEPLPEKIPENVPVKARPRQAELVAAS
UniProt O43633: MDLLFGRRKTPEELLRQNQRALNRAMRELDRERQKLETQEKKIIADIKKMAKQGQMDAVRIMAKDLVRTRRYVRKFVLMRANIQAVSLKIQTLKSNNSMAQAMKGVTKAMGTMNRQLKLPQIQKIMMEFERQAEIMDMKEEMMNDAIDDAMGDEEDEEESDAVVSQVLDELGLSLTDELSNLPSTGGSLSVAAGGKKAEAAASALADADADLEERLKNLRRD
UniProt Q9Y3E7, whole entry, looked up: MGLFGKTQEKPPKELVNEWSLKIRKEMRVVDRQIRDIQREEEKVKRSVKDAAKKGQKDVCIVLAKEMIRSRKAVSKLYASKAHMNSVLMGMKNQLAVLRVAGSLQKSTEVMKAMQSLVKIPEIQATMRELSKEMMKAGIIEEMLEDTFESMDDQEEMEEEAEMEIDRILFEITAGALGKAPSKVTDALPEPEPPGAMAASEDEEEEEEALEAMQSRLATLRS
UniProt Q13112, whole entry, looked up: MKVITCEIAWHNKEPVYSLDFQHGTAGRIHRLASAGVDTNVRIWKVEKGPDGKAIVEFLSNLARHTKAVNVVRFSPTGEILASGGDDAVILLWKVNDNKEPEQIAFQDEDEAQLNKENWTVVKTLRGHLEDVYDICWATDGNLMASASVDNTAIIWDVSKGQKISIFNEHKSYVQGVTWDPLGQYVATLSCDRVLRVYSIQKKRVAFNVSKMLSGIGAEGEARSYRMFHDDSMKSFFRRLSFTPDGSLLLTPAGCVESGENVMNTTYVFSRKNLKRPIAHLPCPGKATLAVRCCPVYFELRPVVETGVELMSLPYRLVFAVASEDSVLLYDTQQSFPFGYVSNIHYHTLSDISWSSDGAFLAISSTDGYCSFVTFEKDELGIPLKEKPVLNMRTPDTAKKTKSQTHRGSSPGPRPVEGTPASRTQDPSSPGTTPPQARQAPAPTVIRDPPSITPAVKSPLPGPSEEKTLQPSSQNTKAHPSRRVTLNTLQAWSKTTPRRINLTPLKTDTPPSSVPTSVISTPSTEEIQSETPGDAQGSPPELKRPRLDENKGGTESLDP
UniProt P24386: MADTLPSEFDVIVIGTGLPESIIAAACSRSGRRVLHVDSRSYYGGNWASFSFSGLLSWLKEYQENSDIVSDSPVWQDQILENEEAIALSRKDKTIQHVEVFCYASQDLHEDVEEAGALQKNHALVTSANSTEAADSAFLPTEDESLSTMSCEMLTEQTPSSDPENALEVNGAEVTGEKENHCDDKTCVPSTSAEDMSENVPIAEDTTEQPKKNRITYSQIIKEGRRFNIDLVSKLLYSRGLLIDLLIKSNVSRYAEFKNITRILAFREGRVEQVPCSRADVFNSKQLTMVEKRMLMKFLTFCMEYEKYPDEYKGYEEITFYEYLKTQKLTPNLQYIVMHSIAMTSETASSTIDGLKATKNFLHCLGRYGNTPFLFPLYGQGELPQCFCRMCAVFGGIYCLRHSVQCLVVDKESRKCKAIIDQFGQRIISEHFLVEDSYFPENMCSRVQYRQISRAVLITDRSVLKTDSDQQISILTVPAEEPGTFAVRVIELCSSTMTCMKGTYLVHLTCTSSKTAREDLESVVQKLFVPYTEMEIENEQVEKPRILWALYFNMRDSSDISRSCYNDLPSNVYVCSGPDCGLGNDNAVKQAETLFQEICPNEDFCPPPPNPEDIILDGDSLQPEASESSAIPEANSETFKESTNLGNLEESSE
UniProt I3L2J0: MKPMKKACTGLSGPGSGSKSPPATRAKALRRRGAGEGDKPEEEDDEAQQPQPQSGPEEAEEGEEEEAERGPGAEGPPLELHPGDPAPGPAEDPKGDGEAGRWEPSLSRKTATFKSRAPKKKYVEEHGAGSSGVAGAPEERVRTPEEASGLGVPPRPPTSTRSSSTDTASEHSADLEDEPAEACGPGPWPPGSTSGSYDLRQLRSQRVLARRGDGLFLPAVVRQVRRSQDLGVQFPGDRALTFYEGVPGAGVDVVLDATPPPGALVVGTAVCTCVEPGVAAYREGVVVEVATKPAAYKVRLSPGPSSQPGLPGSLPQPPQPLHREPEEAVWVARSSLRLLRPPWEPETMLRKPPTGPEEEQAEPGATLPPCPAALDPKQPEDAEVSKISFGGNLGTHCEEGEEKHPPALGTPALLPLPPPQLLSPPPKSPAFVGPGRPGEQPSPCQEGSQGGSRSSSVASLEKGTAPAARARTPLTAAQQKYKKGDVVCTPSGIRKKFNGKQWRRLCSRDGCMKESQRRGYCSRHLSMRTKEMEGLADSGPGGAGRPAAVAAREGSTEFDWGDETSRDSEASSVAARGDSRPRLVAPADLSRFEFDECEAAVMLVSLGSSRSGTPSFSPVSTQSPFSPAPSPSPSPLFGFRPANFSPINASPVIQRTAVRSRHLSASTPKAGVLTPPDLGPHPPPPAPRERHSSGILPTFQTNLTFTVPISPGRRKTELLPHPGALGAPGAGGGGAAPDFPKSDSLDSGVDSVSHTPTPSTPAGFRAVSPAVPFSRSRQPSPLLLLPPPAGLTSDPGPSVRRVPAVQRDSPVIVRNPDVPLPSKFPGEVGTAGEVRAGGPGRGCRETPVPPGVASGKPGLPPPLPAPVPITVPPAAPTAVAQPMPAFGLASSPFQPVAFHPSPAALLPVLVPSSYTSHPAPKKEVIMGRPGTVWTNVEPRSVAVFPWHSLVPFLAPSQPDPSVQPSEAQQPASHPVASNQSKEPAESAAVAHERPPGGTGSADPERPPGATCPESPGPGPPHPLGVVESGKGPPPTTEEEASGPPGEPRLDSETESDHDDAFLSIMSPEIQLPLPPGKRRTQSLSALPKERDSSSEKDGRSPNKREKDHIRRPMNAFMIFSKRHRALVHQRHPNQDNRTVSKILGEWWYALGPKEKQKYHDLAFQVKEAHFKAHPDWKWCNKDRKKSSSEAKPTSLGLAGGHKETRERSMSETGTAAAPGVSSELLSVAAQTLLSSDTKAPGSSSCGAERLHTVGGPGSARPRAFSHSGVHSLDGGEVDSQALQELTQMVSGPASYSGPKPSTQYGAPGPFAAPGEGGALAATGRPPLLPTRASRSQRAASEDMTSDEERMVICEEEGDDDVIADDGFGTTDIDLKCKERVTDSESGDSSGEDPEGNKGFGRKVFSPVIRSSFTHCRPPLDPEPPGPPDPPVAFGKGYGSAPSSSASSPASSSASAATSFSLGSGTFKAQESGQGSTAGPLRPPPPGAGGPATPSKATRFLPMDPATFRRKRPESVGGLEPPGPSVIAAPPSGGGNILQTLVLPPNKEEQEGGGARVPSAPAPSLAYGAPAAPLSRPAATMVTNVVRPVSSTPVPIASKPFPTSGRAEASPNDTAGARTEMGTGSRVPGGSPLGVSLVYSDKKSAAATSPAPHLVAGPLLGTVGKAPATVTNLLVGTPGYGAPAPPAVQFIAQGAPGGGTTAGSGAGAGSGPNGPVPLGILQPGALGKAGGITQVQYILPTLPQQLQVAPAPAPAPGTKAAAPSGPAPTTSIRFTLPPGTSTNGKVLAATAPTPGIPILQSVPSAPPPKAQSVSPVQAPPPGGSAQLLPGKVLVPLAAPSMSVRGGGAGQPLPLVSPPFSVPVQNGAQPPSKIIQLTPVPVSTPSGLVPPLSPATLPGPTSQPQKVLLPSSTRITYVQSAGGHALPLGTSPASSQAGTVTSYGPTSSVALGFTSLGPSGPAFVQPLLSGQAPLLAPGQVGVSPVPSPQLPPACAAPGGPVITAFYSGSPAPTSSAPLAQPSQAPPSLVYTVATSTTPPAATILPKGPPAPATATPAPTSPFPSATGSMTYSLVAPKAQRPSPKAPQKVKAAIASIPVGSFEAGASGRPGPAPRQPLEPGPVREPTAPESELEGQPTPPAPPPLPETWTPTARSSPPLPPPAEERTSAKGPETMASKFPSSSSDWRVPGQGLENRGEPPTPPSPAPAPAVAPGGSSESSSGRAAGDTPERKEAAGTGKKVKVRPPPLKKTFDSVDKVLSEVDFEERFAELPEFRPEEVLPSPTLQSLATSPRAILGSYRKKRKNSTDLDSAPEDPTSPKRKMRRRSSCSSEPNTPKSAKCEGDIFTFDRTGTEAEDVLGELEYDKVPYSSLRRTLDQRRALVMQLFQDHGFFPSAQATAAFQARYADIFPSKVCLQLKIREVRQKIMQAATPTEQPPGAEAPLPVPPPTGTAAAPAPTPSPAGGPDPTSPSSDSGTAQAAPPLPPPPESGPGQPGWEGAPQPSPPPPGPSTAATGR
UniProt Q9BY43: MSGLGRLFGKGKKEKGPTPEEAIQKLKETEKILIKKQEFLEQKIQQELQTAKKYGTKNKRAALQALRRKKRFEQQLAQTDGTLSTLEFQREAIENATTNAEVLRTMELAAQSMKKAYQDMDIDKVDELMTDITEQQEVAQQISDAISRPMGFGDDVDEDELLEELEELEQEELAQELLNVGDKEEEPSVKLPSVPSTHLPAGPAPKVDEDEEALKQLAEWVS
UniProt O96017, whole entry, looked up: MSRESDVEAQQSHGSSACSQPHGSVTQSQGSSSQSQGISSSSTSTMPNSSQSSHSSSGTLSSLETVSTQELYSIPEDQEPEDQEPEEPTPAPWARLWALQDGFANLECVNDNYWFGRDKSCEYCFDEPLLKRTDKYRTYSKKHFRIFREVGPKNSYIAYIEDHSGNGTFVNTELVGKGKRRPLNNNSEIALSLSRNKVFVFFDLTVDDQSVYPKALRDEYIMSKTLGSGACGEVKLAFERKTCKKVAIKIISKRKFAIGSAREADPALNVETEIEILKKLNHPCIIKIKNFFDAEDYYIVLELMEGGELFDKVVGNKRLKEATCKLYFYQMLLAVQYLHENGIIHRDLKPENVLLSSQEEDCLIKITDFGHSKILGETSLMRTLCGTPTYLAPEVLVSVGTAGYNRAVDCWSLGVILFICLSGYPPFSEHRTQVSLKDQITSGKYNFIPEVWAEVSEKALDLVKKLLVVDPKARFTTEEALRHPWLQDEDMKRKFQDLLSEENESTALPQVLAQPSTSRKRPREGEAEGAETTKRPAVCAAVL
UniProt Q5T1J5: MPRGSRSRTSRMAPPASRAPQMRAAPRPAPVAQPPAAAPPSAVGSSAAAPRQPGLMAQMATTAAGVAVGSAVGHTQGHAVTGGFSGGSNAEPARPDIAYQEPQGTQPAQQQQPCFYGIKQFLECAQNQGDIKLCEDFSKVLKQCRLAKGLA
UniProt Q9BQ75: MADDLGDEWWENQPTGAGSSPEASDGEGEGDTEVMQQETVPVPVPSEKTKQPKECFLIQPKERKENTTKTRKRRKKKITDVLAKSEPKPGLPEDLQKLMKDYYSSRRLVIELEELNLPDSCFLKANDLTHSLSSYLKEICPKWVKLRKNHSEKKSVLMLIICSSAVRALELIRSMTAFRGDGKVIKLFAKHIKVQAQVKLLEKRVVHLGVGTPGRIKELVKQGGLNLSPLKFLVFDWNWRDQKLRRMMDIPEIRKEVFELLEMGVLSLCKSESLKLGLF
UniProt Q9H6Q4: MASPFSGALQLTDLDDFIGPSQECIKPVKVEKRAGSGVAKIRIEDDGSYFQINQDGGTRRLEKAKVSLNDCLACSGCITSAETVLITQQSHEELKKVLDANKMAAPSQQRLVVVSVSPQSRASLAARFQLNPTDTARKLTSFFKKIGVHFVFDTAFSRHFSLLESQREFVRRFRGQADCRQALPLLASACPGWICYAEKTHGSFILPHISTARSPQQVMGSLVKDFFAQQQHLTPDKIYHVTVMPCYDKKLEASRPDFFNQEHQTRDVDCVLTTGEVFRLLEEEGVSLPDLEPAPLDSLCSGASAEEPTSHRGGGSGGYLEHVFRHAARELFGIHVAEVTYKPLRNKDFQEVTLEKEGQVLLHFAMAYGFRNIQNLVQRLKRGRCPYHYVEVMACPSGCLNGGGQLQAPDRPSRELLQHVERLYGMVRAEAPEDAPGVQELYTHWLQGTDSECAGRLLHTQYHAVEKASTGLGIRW
UniProt Q96CF2: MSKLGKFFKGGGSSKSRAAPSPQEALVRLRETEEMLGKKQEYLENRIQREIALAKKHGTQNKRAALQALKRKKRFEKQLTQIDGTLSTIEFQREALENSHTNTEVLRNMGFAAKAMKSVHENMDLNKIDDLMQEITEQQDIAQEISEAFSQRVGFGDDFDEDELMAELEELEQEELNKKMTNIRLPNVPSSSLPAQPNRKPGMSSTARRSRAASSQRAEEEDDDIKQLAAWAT

Assays:
Test in all cases: log2 fold change, soluble protein after heating vs DMSO (PISA); higher = thermal stabilisation; K562 lysate, 10 uM; active = over 0.2 and 3.5 SD of the protein, either way, in both replicates (recomputed)
lapatinib = compound: CS(=O)(=O)CCNCc1ccc(-c2ccc3ncnc(Nc4ccc(OCc5cccc(F)c5)c(Cl)c4)c3c2)o1 [lapatinib]
In short: (§1)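 The values are log-two fold changes in thermal stability compared with solvent controls and come from duplicates. They were obtained by TMTpro 16plex LC-MS/MS, with channel sums equalised, on the supernatant after 21,000xg for 90 min. That supernatant came from crude K562 extract at 1 mg/mL protein treated with 10 μM compound for 30 min, heated for 3 min across 48°C-58°C, pooled and brought to 0.5% NP-40 at 4°C.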

pictilisib = compound: CS(=O)(=O)N1CCN(Cc2cc3nc(-c4cccc5[nH]ncc45)nc(N4CCOCC4)c3s2)CC1 [pictilisib]
In short: as §1

crizotinib = compound: C[C@@H](Oc1cc(-c2cnn(C3CCNCC3)c2)cnc1N)c1c(Cl)ccc(F)c1Cl [crizotinib]
In short: as §1

[1] = compound: C[C@H](C1=CC=C(C=C1)C(=O)NC2=C3C=CNC3=NC=C2)N
In short: as §1

duvelisib = compound: C[C@H](Nc1ncnc2nc[nH]c12)c1cc2cccc(Cl)c2c(=O)n1-c1ccccc1 [duvelisib]
In short: as §1

gandotinib = compound: Cc1cc(Nc2cc(CN3CCOCC3)c3nc(C)c(Cc4ccc(Cl)cc4F)n3n2)n[nH]1 [gandotinib]
In short: as §1

tozasertib = compound: Cc1cc(Nc2cc(N3CCN(C)CC3)nc(Sc3ccc(NC(=O)C4CC4)cc3)n2)n[nH]1 [tozasertib]
In short: as §1

doramapimod = compound: Cc1ccc(-n2nc(C(C)(C)C)cc2NC(=O)Nc2ccc(OCCN3CCOCC3)c3ccccc23)cc1 [doramapimod]
In short: as §1

bafetinib = compound: Cc1ccc(NC(=O)c2ccc(CN3CC[C@H](N(C)C)C3)c(C(F)(F)F)c2)cc1Nc1nccc(-c2cncnc2)n1 [bafetinib]
In short: as §1

[2] = compound: Cc1cccc(CC(=O)N2CCc3c2ccc(-c2cn(C)c4ncnc(N)c24)c3F)n1
In short: as §1

nilotinib = compound: Cc1cn(-c2cc(NC(=O)c3ccc(C)c(Nc4nccc(-c5cccnc5)n4)c3)cc(C(F)(F)F)c2)cn1 [nilotinib]
In short: as §1

[3] = compound: Cc1nc(Nc2n[nH]c3c2CN(C(=O)N[C@H](CN(C)C)c2ccccc2)C3(C)C)c2sccc2n1
In short: as §1

dasatinib = compound: Cc1nc(Nc2ncc(C(=O)Nc3c(C)cccc3Cl)s2)cc(N2CCN(CCO)CC2)n1 [dasatinib]
In short: as §1

[4] = compound: Cc1ncc(-c2ccnc(Nc3ccc(S(C)(=O)=O)cc3)n2)n1C(C)C
In short: as §1

[5] = compound: Cn1cc(-c2ccc3c(c2)CCN3C(=O)Cc2cccc(C(F)(F)F)c2)c2c(N)ncnc21
In short: as §1

quisinostat = compound: Cn1cc(CNCC2CCN(c3ncc(C(=O)NO)cn3)CC2)c2ccccc21 [quisinostat]
In short: as §1

tipifarnib = compound: Cn1cncc1[C@@](N)(c1ccc(Cl)cc1)c1ccc2c(c1)c(-c1cccc(Cl)c1)cc(=O)n2C [tipifarnib]
In short: as §1

[6] = compound: NC(=O)Nc1cc(-c2cccc(F)c2)sc1C(=O)N[C@H]1CCCNC1
In short: as §1

[7] = compound: NC(=O)c1cnc(N[C@@H]2CCCC[C@@H]2N)nc1Nc1cccc(-n2nccn2)c1
In short: as §1

[8] = compound: NC1(c2ccc(-c3nc4ccn5c(=O)[nH]nc5c4cc3-c3ccccc3)cc2)CCC1
In short: as §1

Measured: log2 fold change

CHMP6 (UniProt Q96FZ7)
inactive: lapatinib 0.022 | pictilisib -0.104 | crizotinib -0.048 | [1] -0.028 | duvelisib -0.016 | gandotinib 0.04 | tozasertib 0.04 | doramapimod 0.135 | bafetinib -0.007 | [2] 0.038 | nilotinib 0.141 | [3] 0.04 | dasatinib -0.011 | [4] -0.029 | [5] 0.001 | quisinostat -0.02 | tipifarnib -0.006 | [6] -0.043 | [7] -0.065 | [8] 0.035

CIT isoform 4 (UniProt O14578)
inactive: lapatinib -0.055 | pictilisib -0.003 | crizotinib -0.01 | [1] 0.047 | duvelisib -0.02 | gandotinib -0.097 | tozasertib 0.028 | doramapimod 0.006 | bafetinib -0.023 | [2] 0.002 | nilotinib -0.015 | [3] -0.003 | dasatinib -0.074 | [4] -0.035 | [5] 0.01 | quisinostat -0.007 | tipifarnib -0.003 | [6] 0.047 | [7] 0.015 | [8] 0

CHD8 (UniProt Q9HCK8)
inactive: lapatinib 0.091 | pictilisib 0.061 | crizotinib 0.006 | [1] -0.045 | duvelisib -0.022 | gandotinib -0.035 | tozasertib -0.021 | doramapimod 0.039 | bafetinib -0.087 | [2] 0.095 | nilotinib -0.005 | [3] -0.031 | dasatinib -0.006 | [4] -0.034 | [5] 0.022 | quisinostat -0.015 | tipifarnib 0.02 | [6] 0.059 | [7] 0.041 | [8] -0.022

CHMP2A (UniProt O43633)
inactive: lapatinib 0.013 | pictilisib 0.033 | crizotinib -0.01 | [1] -0.059 | duvelisib -0.003 | gandotinib 0.092 | tozasertib 0.002 | doramapimod 0.001 | bafetinib 0.042 | [2] 0.006 | nilotinib -0.017 | [3] -0.019 | dasatinib 0.043 | [4] -0.016 | [5] 0 | quisinostat -0.024 | tipifarnib -0.012 | [6] -0.044 | [7] -0.017 | [8] 0.037

CIP2A (UniProt Q8TCG1)
inactive: lapatinib -0.02 | pictilisib -0.045 | crizotinib -0.101 | [1] -0.049 | duvelisib 0.012 | gandotinib -0.218 | tozasertib 0 | doramapimod 0.005 | bafetinib -0.047 | [2] 0.103 | nilotinib -0.006 | [3] 0.02 | dasatinib -0.107 | [4] 0.024 | [5] 0.054 | quisinostat -0.123 | tipifarnib 0.01 | [6] 0.019 | [7] 0.032 | [8] -0.014

CHMP3 (UniProt Q9Y3E7)
inactive: lapatinib 0.019 | pictilisib -0.018 | crizotinib -0.003 | [1] 0.01 | duvelisib 0.006 | gandotinib 0.059 | tozasertib 0 | doramapimod 0.017 | bafetinib 0.005 | [2] -0.002 | nilotinib 0.003 | [3] -0.015 | dasatinib -0.019 | [4] 0.029 | [5] -0.017 | quisinostat -0.001 | tipifarnib -0.069 | [6] -0.049 | [7] -0.024 | [8] -0.031

CHAF1B (UniProt Q13112)
inactive: lapatinib -0.017 | pictilisib -0.011 | crizotinib -0.021 | [1] -0.071 | duvelisib 0.005 | gandotinib 0.074 | tozasertib 0.001 | doramapimod 0.037 | bafetinib -0.035 | [2] 0.021 | nilotinib -0.034 | [3] 0.004 | dasatinib -0.001 | [4] -0.028 | [5] -0.008 | quisinostat -0.077 | tipifarnib -0.04 | [6] 0.012 | [7] -0.012 | [8] 0.014

CHM (UniProt P24386)
inactive: lapatinib -0.034 | pictilisib -0.005 | crizotinib 0.022 | [1] 0.004 | duvelisib 0.053 | gandotinib 0.002 | tozasertib -0.076 | doramapimod -0.012 | bafetinib 0.013 | [2] 0.095 | nilotinib -0.071 | [3] -0.111 | dasatinib -0.015 | [4] 0.154 | [5] -0.03 | quisinostat -0.018 | tipifarnib -0.095 | [6] -0.094 | [7] 0.024 | [8] -0.028

CIC (UniProt I3L2J0)
inactive: lapatinib -0.074 | pictilisib -0.02 | crizotinib -0.002 | [1] -0.052 | duvelisib -0.047 | gandotinib 0.006 | tozasertib 0.02 | doramapimod -0.036 | bafetinib -0.08 | [2] 0.037 | nilotinib 0.045 | [3] 0.024 | dasatinib 0 | [4] 0.001 | [5] 0.006 | quisinostat 0.027 | tipifarnib -0.087 | [6] -0.053 | [7] -0.073 | [8] 0.014

CHMP4A isoform 2 (UniProt Q9BY43)
active: [1] -0.227
inactive: lapatinib 0.009 | pictilisib 0.022 | crizotinib -0.047 | duvelisib -0.001 | gandotinib 0.182 | tozasertib -0.01 | doramapimod 0.054 | bafetinib -0.036 | [2] 0.18 | nilotinib -0.026 | [3] -0.021 | dasatinib 0.039 | [4] 0 | [5] -0.011 | quisinostat -0.145 | tipifarnib 0.017 | [6] -0.029 | [7] -0.02 | [8] -0.009

CHEK2 (UniProt O96017)
active: [3] 0.285 | [6] 0.326
inactive: lapatinib 0.08 | pictilisib -0.012 | crizotinib 0.069 | [1] -0.011 | duvelisib 0.002 | gandotinib -0.019 | tozasertib 0.039 | doramapimod 0.018 | bafetinib -0.046 | [2] -0.008 | nilotinib -0.022 | dasatinib 0.04 | [4] -0.007 | [5] 0.05 | quisinostat -0.057 | tipifarnib 0.023 | [7] 0.013 | [8] 0.035

CHCHD2P9 (UniProt Q5T1J5)
inactive: lapatinib 0.011 | pictilisib -0.026 | crizotinib 0.092 | [1] 0 | duvelisib 0.073 | gandotinib 0.012 | tozasertib 0.028 | doramapimod -0.005 | bafetinib 0.158 | [2] -0.09 | nilotinib -0.109 | [3] 0.011 | dasatinib 0.001 | [4] 0.007 | [5] -0.013 | quisinostat -0.099 | tipifarnib -0.011 | [6] 0 | [7] -0.032 | [8] 0.152

CMSS1 (UniProt Q9BQ75)
inactive: lapatinib 0.012 | pictilisib 0.016 | crizotinib -0.021 | [1] 0.176 | duvelisib -0.001 | gandotinib -0.086 | tozasertib 0.009 | doramapimod 0.015 | bafetinib -0.026 | [2] -0.015 | nilotinib -0.025 | [3] 0.014 | dasatinib -0.019 | [4] 0 | [5] 0.014 | quisinostat 0.023 | tipifarnib 0.06 | [6] 0.013 | [7] 0.004 | [8] 0.031

CIAO3 (UniProt Q9H6Q4)
inactive: lapatinib 0.035 | pictilisib 0.002 | crizotinib -0.033 | [1] -0.08 | duvelisib -0.016 | gandotinib 0.049 | tozasertib 0.007 | doramapimod -0.01 | bafetinib 0.049 | [2] 0.001 | nilotinib -0.017 | [3] 0.07 | dasatinib -0.013 | [4] 0.048 | [5] 0.023 | quisinostat -0.037 | tipifarnib -0.006 | [6] 0.012 | [7] -0.028 | [8] 0.014

CHD4 isoform 2 (UniProt Q14839)
inactive: lapatinib 0.003 | pictilisib -0.004 | crizotinib -0.007 | [1] -0.05 | duvelisib -0.038 | gandotinib 0.005 | tozasertib 0.011 | doramapimod 0.021 | bafetinib -0.05 | [2] 0.05 | nilotinib 0.006 | [3] 0.008 | dasatinib -0.011 | [4] -0.006 | [5] 0.015 | quisinostat -0.038 | tipifarnib -0.008 | [6] 0.031 | [7] 0.01 | [8] 0.001

CHMP4C (UniProt Q96CF2)
inactive: lapatinib 0 | pictilisib 0.056 | crizotinib -0.06 | [1] -0.194 | duvelisib 0.002 | gandotinib 0.086 | tozasertib 0.043 | doramapimod 0.043 | bafetinib -0.024 | [2] 0.083 | nilotinib 0.05 | [3] -0.032 | dasatinib 0.028 | [4] -0.022 | [5] -0.002 | quisinostat -0.1 | tipifarnib -0.011 | [6] -0.037 | [7] -0.019 | [8] -0.023
